Measured values: PubChem BioAssay AID1508600 (Functional Genomics Laboratory (NCATS/FGL), 2020)
About 3,700 (7%) of roughly 53,000 sequences were called active.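 How the source made its calls: active means gene knockdowns whose robust z-score for IL-1 alpha signal is at least 2 or at most -2, so actives lie on both sides; inactive means the rest.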 This is one part of the list.

Assay: Components of the Cytosolic LPS Sensing Pathway: Gene Identification via Genome-wide siRNA Screen;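 further: robust z of the log signal after scaling to non-targeting control siRNA wells of the plate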
Details: RAW264.7 macrophages, IL-1a HTRF, actives lie on both sides, screened at 100 nM (by protocol), cells primed 5 h with Pam3CSK4 first
Summary of the method: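 IL-1a HTRF of supernatants after 24 hour LipidA transfection of Pam3CSK4-primed (5 hours) RAW264.7 cells, 48h post-siRNA transfection (100 nM). Scores: percent of plate negative-control median, then log-based robust z-score.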

Sequence | z-score
GGCAGACCGUGUUAAAAUGTT against Dnajc2 | inactive: -0.481
GGAGUUCUCGGACUUUCUGTT against C87436 | inactive: 0.179
GCCAUGCUAGUUUGAUACCTT against Bmp4 | inactive: -0.164
GGGAUUUUUCCCUUAAUUCTT against Smad4 | inactive: 0.00716
GUCCCUCUUUCUAUGGAGGTT against Krtap19-9b | inactive: 0.703
GGCUGUUGUGGAUUUUCUCTT against Olfr698 | inactive: -1.12
GGAAGAAUUCGAAAAUGUGTT against Efhb | inactive: -0.427
GGACAAUAAUGACAACAAATT against Tnrc6b | inactive: 0.883
UCUCUGUUCUGUAUACAGUTT against Olfr1414 | inactive: 0.884
GGAAAAAGCCAGGCCUUUUTT against Ptbp3 | inactive: -0.919
GGAGUGAAAUAUGGAGUUGTT against Dhrs7b | inactive: 0.787
GGAGAUGCCUUCCAGAUUCTT against Pcdh12 | inactive: 1.69
GGUCUUCUCUACCUGCUCCTT against Olfr796 | inactive: 1.06
GGAAACUAAUUUCAAGCCUTT against Hat1 | inactive: 1.19
GGCAAAAGAUAUAAGCGGUTT against Mbd3l2 | inactive: -0.625
GGAGCUGAAAUCCUUUGUUTT against Dnttip1 | inactive: -0.242
GGACUUUUGUGUAUAGUUATT against Smad1 | inactive: 1.59
CCACCCACUAAACCUAAAUTT against Pcolce | inactive: 0.136
GGUUUUGGAUUUGUGACUATT against Elavl2 | inactive: -0.993
GGAUAAGACUGUUGUCAGATT against Prl8a6 | inactive: 0.759
GGACUUGUCUUUGACACGCTT against Nt5c2 | inactive: 0.0523
GGAAAUGCUUCUGAGCUAGTT against Desi2 | inactive: 1.71
GCCGAACGUGUUUAAACUCTT against Psd3 | inactive: 0.0404

Sequence | z-score
CGACCAUACGAAUGCGGCATT against Zfp865 | inactive: 0.498
CCGCUUUUGGAACUAUGAGTT against Stard3nl | inactive: -0.64
GGUCCUUUUUUCAACCAGCTT against Sh3gl1 | inactive: -0.259
CGAGGAGCUAGCUGUAAAUTT against Gsc | inactive: 0.603
CCAGAAUGGCGGGUAUUUGTT against Fbln5 | active: 2.14
CCUUAGGAUUUGAACGCGUTT against Cutc | inactive: -0.554
GGAGUUUUUGUGAGACAAATT against Fam210b | inactive: -0.661
GGUACAAUGGCACUGUCACTT against Chrna5 | inactive: -1.29
GGUUUUGGCGGAUACUAAGTT against Plin3 | inactive: -0.24
GCGGAUUGUCUUCCUAGACTT against Smg9 | inactive: -1.14
GCGAUGCACUGUGUAAACUTT against Ccr6 | inactive: 0.772
GGAAUACGGAAUCAUGGUUTT against Ift52 | inactive: -0.0653
GGCUGCACAUCUGAGUACCTT against Itgb2l | inactive: -1.62
CCUACUUGCAGAUUGUUUUTT against Rapgef6 | inactive: 0.484
GGAACUGCCUGAAAAAAUGTT against Dcn | active: -2.76
CGGCAUUCAGAUUGUCUCUTT against Nup210 | inactive: -1.22
GGCAGAAUUUCAGCAACCUTT against Asgr1 | inactive: -1.32
GGAGCUAAGGUGGUACGAGTT against Mib2 | inactive: -0.555
GCAUGGAGGAAACCAUUAGTT against Slc38a3 | inactive: -1.84
GGCCUUGGGCAUACUCAACTT against Star | inactive: -0.562
GGAGAGACAGAGACAAAAUTT against Trim26 | inactive: -0.643
GGAAUUGAACAUCAUUUGCTT against Suox | inactive: 1.09
CCAUUACAUCAGCUUUAUUTT against Pamr1 | inactive: -0.845

Three neighbouring entries from above, quoted:
Sequence | z-score
GCAUGGAGGAAACCAUUAGTT against Slc38a3 | inactive: -1.84
GGCCUUGGGCAUACUCAACTT against Star | inactive: -0.562
GGAGAGACAGAGACAAAAUTT against Trim26 | inactive: -0.643

The results go on:

Sequence | z-score
GGAAAAGUUAAAGGAAGUCTT against Snrnp35 | inactive: -1.37
GGAUGACAAGACAUCACUUTT against Yipf2 | inactive: 0.568
GGAGCAGCUGAGAGAAAAATT against Ccdc144b | inactive: -0.413
GGGUAUGCUUCAGUGUUCATT against Nabp2 | inactive: 1.25
GGCAUUGUAACCCUUGUAATT against Zscan26 | inactive: -0.684
GCUAUGCUGUUUUAUGUGATT against Synpr | inactive: 0.212
GGAAGUAAAGCUCUACAAGTT against Vps28 | inactive: 0.236
GGGAGACGGCGAGGUUUUATT against Arl6ip4 | active: 2.89
GGCGUGUUUGCUAAUUUAUTT against Pkd1 | inactive: -0.646
GUUGAAAGUUAACCAAAACTT against H2ac4 | inactive: -1.61
GCGAGAAAAACGAUUCAGCTT against Sptbn2 | inactive: 0.386
GGCAAAUGUGGCCGUGUUUTT against Ccne1 | inactive: 0.175
GCAAACUGAAAAAACCCGCTT against Tssk3 | inactive: 0.366
GCAAAAGUAGAAGAACAACTT against Ccnt1 | inactive: -0.172
GGGUCUGAUCACUUAUAUUTT against Lysmd3 | active: 2.02
GGGUACAGUCCGAUACAGUTT against Nploc4 | inactive: -1.79
GGCAGACAAUCAAUGAAAUTT against Padi4 | inactive: -0.451
GGUUUGAAAAGCGAAUUUATT against Vps4a | inactive: -0.151
GGUGGAGAAAAAUGCAACATT against Clnk | inactive: -0.429
GGCGCAGAGCAAAGGAUAUTT against Pcdha1 | inactive: 0.197
CCAAUUCCCAAAAUUAGCCTT against Ppm1k | inactive: -0.0304
GGGUUAUCCGUAUGUUUUCTT against Olfr557 | inactive: 0.964

Another view of part of the listing above.
Sequence,z-score
GGUGGAGAAAAAUGCAACATT against Clnk,inactive: -0.429
GGCGCAGAGCAAAGGAUAUTT against Pcdha1,inactive: 0.197
